Results reported in the supplement of paper PMC12823440, “Inhibitors supercharge kinase turnover through native proteolytic circuits” (Nature, 2025).
This is one part of the list. Hit calls seldom repeat between salt and free forms of one compound.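 Kinases were expressed as nanoluciferase fusions in K562 cells and luminescence was read every 4 h between 2 and 18 h as percent of control, DMSO set to 100% and a positive control to 0%. A time point counts as decreased when the signal drops significantly (2 sigma). The hit call is the authors' own, does not follow from the count of time points alone, and its rule is not shown.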

By UniProt entry, the sequences of proteins in these tests, tags left out. Where a name states a change or a piece, a line headed by the entry shows the natural chain unless it says otherwise.
UniProt Q01974, whole entry: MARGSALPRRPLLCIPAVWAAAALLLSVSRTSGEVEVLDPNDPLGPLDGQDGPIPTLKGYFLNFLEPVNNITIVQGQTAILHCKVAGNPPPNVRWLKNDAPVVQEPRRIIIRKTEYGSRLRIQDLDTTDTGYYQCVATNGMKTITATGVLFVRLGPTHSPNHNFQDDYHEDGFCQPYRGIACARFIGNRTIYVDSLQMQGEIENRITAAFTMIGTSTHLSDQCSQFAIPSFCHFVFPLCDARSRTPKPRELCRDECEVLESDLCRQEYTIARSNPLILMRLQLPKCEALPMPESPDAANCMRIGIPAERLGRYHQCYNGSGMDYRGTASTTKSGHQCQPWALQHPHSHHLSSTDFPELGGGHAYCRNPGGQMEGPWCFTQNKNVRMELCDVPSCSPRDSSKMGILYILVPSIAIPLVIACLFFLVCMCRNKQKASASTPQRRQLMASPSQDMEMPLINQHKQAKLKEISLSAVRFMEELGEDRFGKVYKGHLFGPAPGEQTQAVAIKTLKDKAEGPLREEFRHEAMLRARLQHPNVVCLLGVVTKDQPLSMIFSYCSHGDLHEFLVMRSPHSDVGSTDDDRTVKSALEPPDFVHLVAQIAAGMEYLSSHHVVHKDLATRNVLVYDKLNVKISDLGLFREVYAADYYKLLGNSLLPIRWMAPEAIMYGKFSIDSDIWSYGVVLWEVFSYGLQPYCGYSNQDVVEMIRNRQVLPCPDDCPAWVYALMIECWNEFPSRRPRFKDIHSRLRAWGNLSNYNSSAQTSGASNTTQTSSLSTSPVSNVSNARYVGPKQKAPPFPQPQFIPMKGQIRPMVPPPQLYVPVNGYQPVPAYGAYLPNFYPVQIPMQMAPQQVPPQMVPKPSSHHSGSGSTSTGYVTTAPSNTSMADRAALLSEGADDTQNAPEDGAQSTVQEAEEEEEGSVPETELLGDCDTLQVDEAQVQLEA
UniProt Q15418, whole entry: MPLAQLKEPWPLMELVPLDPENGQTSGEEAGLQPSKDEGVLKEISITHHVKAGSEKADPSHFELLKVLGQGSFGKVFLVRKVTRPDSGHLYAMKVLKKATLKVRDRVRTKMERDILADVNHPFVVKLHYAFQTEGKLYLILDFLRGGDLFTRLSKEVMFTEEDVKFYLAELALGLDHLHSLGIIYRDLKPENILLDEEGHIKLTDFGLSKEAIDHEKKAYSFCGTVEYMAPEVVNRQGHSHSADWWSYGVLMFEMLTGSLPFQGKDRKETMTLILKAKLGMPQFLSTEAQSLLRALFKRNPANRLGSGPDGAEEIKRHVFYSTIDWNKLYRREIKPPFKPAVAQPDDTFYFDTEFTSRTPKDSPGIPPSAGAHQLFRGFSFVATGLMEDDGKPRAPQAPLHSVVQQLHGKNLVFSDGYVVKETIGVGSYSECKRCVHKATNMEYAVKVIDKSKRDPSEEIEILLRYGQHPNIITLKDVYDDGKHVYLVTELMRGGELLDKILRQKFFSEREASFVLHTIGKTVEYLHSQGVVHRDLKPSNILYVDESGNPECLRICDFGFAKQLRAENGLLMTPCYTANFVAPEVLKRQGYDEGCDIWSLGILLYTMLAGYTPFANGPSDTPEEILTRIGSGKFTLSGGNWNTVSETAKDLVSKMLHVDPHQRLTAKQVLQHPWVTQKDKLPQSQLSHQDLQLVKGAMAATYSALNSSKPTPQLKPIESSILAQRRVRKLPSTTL
UniProt Q9NYA1, whole entry: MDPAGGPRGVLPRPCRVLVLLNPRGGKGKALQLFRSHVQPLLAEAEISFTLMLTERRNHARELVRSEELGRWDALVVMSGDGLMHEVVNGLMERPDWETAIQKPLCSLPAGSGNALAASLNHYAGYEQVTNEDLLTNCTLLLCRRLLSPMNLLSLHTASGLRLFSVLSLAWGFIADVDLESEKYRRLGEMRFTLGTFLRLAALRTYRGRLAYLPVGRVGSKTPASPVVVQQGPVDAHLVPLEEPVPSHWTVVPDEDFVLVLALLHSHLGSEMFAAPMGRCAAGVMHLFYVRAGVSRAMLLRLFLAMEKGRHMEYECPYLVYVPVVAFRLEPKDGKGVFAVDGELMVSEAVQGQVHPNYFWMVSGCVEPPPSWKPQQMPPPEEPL
UniProt Q9Y6E0: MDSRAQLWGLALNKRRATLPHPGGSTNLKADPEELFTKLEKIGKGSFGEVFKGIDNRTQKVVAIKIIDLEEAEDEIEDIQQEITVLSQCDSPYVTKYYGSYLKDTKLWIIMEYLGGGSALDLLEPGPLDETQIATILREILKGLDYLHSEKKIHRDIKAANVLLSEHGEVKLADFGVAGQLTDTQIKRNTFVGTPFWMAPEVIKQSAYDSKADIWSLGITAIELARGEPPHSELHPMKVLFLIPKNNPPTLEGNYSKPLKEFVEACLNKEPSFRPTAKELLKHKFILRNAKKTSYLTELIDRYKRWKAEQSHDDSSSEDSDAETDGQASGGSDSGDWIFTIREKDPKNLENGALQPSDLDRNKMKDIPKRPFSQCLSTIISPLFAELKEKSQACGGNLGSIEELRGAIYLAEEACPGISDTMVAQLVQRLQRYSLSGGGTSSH
UniProt Q15208: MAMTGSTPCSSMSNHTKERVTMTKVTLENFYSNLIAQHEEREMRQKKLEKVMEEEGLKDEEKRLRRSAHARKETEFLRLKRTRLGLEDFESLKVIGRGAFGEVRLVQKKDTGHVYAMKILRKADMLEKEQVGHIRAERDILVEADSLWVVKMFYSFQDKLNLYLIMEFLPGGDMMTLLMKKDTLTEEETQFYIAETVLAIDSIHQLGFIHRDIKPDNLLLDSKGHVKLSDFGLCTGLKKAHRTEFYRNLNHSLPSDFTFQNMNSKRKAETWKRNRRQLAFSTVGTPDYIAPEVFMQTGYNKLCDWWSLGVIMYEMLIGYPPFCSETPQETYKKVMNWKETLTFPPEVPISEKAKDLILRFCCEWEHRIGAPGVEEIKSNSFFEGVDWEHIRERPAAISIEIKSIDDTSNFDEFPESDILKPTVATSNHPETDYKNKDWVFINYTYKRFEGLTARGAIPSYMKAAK
UniProt P29597: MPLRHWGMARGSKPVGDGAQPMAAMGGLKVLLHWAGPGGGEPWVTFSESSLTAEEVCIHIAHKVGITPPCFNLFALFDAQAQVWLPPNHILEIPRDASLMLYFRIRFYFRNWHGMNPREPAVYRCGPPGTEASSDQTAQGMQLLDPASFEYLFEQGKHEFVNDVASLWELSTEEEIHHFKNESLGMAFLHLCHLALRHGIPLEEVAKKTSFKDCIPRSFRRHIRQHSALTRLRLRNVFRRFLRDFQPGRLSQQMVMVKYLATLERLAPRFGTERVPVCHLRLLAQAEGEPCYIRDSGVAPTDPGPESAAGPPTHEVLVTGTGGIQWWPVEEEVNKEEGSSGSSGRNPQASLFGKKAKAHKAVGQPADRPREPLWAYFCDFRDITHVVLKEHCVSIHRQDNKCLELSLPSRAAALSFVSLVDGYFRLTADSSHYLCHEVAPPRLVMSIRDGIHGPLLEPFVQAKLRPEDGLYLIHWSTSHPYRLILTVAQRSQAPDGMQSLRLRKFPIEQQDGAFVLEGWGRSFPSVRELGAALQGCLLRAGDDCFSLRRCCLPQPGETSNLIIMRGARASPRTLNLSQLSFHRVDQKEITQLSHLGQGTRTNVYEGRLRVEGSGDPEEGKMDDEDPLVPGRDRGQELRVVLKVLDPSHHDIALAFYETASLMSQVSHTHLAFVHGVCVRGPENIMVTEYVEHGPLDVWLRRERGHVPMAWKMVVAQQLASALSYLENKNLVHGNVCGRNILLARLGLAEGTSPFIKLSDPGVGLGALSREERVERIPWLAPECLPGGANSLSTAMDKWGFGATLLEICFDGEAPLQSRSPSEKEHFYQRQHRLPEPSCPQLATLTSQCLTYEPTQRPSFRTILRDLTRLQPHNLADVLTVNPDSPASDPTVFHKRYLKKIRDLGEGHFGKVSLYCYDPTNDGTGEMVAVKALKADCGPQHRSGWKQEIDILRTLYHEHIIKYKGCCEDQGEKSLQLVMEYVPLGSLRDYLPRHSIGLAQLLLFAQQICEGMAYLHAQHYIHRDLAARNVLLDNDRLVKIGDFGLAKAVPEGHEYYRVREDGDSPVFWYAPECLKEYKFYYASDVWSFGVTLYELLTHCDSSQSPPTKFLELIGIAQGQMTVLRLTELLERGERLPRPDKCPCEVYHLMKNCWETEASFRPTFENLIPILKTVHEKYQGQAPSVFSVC
UniProt Q6PHR2: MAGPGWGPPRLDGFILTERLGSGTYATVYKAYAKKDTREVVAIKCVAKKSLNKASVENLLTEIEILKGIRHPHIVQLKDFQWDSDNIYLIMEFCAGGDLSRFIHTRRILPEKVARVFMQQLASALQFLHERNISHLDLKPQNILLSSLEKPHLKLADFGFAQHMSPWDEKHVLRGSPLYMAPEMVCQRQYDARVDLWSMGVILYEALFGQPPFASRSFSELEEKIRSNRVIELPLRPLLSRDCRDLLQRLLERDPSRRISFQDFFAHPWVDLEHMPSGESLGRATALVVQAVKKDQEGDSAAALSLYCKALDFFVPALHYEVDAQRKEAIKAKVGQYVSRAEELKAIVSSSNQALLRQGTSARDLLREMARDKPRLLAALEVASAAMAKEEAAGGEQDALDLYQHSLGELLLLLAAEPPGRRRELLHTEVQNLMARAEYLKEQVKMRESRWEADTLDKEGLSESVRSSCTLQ
UniProt P07947, whole entry, looked up: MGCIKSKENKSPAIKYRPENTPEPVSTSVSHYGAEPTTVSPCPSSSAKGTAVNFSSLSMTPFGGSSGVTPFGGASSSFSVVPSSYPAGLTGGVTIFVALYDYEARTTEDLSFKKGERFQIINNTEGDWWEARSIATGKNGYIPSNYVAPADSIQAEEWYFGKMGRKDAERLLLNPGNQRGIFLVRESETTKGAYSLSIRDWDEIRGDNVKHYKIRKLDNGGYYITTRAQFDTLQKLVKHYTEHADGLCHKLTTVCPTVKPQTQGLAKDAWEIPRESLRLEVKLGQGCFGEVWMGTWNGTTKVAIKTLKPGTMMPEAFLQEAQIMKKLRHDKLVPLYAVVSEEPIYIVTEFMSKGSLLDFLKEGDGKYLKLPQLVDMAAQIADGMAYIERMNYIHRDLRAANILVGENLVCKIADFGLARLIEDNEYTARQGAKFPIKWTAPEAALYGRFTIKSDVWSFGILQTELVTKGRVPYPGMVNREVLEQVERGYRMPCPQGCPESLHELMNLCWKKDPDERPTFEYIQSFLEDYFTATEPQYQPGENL
UniProt P43403: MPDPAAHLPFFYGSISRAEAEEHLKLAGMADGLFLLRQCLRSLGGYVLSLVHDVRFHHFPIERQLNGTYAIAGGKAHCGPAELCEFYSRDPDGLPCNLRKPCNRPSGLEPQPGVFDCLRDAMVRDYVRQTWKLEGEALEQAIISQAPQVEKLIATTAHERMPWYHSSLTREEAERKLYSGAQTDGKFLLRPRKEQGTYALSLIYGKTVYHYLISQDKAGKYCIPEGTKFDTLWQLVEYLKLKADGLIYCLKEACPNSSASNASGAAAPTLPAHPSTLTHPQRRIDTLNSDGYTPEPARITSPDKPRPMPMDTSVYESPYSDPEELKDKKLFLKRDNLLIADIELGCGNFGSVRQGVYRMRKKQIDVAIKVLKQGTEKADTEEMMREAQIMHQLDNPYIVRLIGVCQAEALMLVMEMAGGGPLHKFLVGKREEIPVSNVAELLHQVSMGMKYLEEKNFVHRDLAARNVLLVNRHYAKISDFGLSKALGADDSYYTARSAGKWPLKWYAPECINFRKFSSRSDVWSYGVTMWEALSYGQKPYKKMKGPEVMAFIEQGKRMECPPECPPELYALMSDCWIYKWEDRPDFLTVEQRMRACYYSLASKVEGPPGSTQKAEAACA
UniProt P50613: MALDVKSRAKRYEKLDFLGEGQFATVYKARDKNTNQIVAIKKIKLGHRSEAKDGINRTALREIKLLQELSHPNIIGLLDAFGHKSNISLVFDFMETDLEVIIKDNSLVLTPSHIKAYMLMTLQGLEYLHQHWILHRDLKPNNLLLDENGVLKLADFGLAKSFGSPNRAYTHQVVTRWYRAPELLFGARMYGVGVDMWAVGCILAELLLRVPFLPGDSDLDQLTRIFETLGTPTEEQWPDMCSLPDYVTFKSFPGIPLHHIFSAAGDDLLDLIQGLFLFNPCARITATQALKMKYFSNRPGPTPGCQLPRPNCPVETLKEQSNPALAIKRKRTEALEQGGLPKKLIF
UniProt P50750, whole entry: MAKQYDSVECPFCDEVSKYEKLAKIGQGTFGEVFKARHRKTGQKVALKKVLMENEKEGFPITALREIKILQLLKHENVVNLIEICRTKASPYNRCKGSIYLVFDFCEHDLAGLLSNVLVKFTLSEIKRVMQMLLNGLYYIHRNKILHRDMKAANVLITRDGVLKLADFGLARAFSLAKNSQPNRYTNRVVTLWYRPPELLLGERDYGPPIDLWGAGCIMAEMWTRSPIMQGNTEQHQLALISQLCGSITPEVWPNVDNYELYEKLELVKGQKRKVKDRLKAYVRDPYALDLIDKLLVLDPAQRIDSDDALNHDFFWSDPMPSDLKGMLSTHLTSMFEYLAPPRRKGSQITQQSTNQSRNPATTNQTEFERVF

Key:
Details in all cases: K562; 2-18 h
ROR2 = ROR2 (UniProt Q01974); assay: number of time points (of 5) at which kinase-Nluc abundance scored as decreased, DMSO-normalised (count); higher = more persistent destabilization
RPS6KA1 = RPS6KA1 (UniProt Q15418); assay: as above
SPHK1 = SPHK1 (UniProt Q9NYA1); assay: as above
SRC = SRC (UniProt P12931); assay: as above
STK24 = STK24 (UniProt Q9Y6E0); assay: as above
STK38 = STK38 (UniProt Q15208); assay: as above
SYK = SYK (UniProt P43405); assay: as above
TEC = TEC (UniProt P42680); assay: as above
TYK2 = TYK2 (UniProt P29597); assay: as above
ULK3 = ULK3 (UniProt Q6PHR2); assay: as above
YES1 = YES1 (UniProt P07947); assay: as above
ZAK = ZAK (UniProt Q9NYL2); assay: as above
ZAP70 = ZAP70 (UniProt P43403); assay: as above
CDK4 = CDK4 (UniProt P11802); assay: number of time points (of 4; 2 h point missing) at which kinase-Nluc abundance scored as decreased, DMSO-normalised (count); higher = more persistent destabilization
CDK7 = CDK7 (UniProt P50613); assay: as above
CDK9 = CDK9 (UniProt P50750); assay: as above

Measured: number of time points

Cc1cc2c(F)c(Oc3ncnn4cc(OC[C@@H](C)OC(=O)[C@H](C)N)c(C)c34)ccc2[nH]1 [Brivanib (alaninate)] (10 µM)
0: all assays above

COc1c(Nc2ncc(Cl)c(N[C@H]3[C@@H](C(N)=O)[C@@H]4C=C[C@H]3C4)n2)ccc2c1CC[C@@H](N1CCOCC1)CC2 (10 µM)
0: all assays above

O=CN1CCN(c2ccc(C=C3C(=O)Nc4ccccc43)cc2)CC1 (10 µM)
0: all assays above

Cc1nc(NC(=O)N2CCC[C@H]2C(N)=O)sc1-c1ccnc(C(C)(C)C(F)(F)F)c1 [Alpelisib] (2.5 µM)
0: all assays above

O=C(Nc1ccccc1C(=O)NC1CCCCNC1=O)c1cc2ccccc2s1 (configuration not stated) (10 µM)
0: all assays above

CNc1cc2c(Nc3cccc(Br)c3)ncnc2cn1 (10 µM)
0: all assays above

COc1ccc(-c2cc(=O)c3c(O)cc(O)cc3o2)cc1-c1c(O)cc(O)c2c(=O)cc(-c3ccc(O)cc3)oc12 [Bilobetin] (2.5 µM)
0: all assays above
